This note sets out measurements from article PMC6052025.

Chains of the proteins cited; added tags and fusions are not shown.
UniProt Q0ZGT2: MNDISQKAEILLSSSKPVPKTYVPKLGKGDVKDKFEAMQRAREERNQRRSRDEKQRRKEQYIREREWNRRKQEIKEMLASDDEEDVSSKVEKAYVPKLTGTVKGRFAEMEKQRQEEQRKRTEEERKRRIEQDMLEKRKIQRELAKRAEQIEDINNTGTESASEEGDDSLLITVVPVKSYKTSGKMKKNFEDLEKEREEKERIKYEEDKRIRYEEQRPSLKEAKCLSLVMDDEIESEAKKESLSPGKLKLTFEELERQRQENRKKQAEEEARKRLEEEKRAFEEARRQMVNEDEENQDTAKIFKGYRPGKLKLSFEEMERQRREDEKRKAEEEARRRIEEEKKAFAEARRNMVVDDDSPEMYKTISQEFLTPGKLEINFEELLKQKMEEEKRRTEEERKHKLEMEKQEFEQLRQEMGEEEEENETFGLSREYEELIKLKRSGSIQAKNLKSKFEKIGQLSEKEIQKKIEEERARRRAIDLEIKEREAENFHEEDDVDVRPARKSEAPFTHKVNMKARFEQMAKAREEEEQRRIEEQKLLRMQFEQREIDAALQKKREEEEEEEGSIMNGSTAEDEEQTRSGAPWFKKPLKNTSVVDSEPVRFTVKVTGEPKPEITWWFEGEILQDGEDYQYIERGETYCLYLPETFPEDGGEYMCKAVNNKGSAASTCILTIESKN

The experiment concerns the target T1, B-cell receptor-associated protein 31 (BAP31) (human (endogenous in HeLa)) (UniProt P51572).
T1 sequence: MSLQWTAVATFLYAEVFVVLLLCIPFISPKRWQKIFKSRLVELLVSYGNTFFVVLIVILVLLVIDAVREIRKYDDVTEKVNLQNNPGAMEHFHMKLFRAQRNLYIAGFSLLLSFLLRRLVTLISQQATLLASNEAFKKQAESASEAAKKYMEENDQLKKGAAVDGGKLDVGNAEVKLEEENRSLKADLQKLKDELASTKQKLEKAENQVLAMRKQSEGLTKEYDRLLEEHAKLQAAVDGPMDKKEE
The experiment can be described thus: co-IP; HeLa cell extracts immunoprecipitated with FM-1 and an irrelevant control antibody; precipitates analysed by western blotting with antibodies to BAP31, Drebrin, M-RIP, SPECC1L and Nexilin. (In general: In western blotting, separated proteins are transferred to a membrane and probed.)

Results are given in words; binding and its absence hold for the method and conditions named. In cells and extracts the contact can be indirect. Some entries that bind do so weakly or less than the wild type.

Turning to Nexilin (from UniProt Q0ZGT2 1-675), the binding result is listed as “binds”.

B1: Drebrin (protein, UniProt Q16643 1-649)
chain: MAGVSFSGHRLELLAAYEEVIREESAADWALYTYEDGSDDLKLAASGEGGLQELSGHFENQKVMYGFCSVKDSQAALPKYVLINWVGEDVPDARKCACASHVAKVAEFFQGVDVIVNASSVEDIDAGAIGQRLSNGLARLSSPVLHRLRLREDENAEPVGTTYQKTDAAVEMKRINREQFWEQAKKEEELRKEEERKKALDERLRFEQERMEQERQEQEERERRYREREQQIEEHRRKQQTLEAEEAKRRLKEQSIFGDHRDEEEETHMKKSESEVEEAAAIIAQRPDNPREFFKQQERVASASAGSCDVPSPFNHRPGSHLDSHRRMAPTPIPTRSPSDSSTASTPVAEQIERALDEVTSSQPPPLPPPPPPAQETQEPSPILDSEETRAAAPQAWAGPMEEPPQAQAPPRGPGSPAEDLMFMESAEQAVLAAPVEPATADATEIHDAADTIETDTATADTTVANNVPPAATSLIDLWPGNGEGASTLQGEPRAPTPPSGTEVTLAEVPLLDEVAPEPLLPAGEGCATLLNFDELPEPPATFCDPEEVEGESLAAPQTPTLPSALEELEQEQEPEPHLLTNGETTQKEGTQASEGYFSQSQEEEFAQSEELCAKAPPPVFYNKPPEIDITCWDADPVPEEEEGFEGGD
Consider B1, for which the binding result was “binds”.
